From PMC10716145, “ZNF524 directly interacts with telomeric DNA and supports telomere integrity” come the findings set out here.

The exact form of at least one protein or probe is not confirmed. For part of these data: At least one result comes from cells or an extract, where the contact may be indirect. For part of these data: No signal at the amounts used counts as a negative. Tags and fusion partners may be left off the protein sequences shown.

One data set concerns the target T1, ZNF524 ZF1-2 (human) (UniProt Q96C55).
T1 sequence (looked up, limits assumed): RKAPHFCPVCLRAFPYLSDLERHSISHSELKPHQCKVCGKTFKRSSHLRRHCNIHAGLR
Kind of data set: ITC. The conditions noted are these: Fig 1d prints >20; ITC: 20 mM Tris-HCl pH 7.5, 150 mM NaCl, 20 C; recombinant protein.

A further data set has as its target T2, endogenous ZNF524 (UniProt Q96C55).
T2 sequence (looked up, limits assumed): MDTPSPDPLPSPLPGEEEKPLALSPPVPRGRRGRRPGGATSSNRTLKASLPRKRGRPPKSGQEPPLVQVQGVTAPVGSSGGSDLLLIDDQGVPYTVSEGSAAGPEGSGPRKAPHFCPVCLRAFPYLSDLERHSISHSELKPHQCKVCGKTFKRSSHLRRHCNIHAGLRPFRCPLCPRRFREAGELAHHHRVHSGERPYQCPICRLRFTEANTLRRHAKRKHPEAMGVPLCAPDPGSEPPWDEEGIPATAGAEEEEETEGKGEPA
Kind of data set: pull-down. To be noted: pull-down: 50 mM Tris-HCl pH 7.5, 150 mM NaCl, 0.5% IGEPAL, 5 mM MgCl2, 1 mM DTT, salmon sperm DNA, 4 C; protein in an extract; label: biotin-7-dATP.

For data set [1], the target named is T3, ZNF524 ZF1-4 minimal domain (human) (UniProt Q96C55).
T3 sequence (looked up): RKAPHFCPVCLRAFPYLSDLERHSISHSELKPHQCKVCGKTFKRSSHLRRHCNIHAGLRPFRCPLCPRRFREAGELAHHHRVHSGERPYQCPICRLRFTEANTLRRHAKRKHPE
Kind of data set: ITC. The conditions noted are these: G4 annealed in 100 mM KCl, main text says no interaction detected; ITC: 20 mM Tris-HCl pH 7.5, 150 mM NaCl, 20 C; recombinant protein; residues 110-223; folded or branched DNA.

One may read the Kd as the equilibrium constant for the complex coming apart. On to “GGTTAGGGTTAG (double strand) [TTAGGG 12-bp duplex]”, for which the Kd with ZNF524 ZF1-2 (human) is greater than 100 µM.
Regarding “GTGAGTGTGAGTGTGAGTGTGAGTGTGAGTGTGAGTGTGAGTGTGAGTGTGAGTGTGAGT / ACACTCACACTCACACTCACACTCACACTCACACTCACACTCACACTCACACTCACACTC [GTGAGT scrambled pull-down bait]”, the binding result with endogenous ZNF524 is “no binding”.
TTAGGGTTAGGGTTAGGGTTAGGG [(TTAGGG)4-G4]: the dissociation constant Kd in data set [1] turned out to be 3.58 µM.
